This passage reports binding results from patent US20200157147A1 (SEOUL NATIONAL UNIVERSITY HOSPITAL, published 2020).

Assay [1] concerns the target adenylyl cyclase-associated protein 1 (CAP1) of THP-1 cells (human) (UniProt Q01518). As to the kind of experiment: mFc pull-down from THP-1 cell lysate, western blot with anti-CAP1.
The target is the same in assay [2]. As to the kind of experiment: Fc-bead pull-down from THP-1 cell lysate, western blot with a-CAP1(M30).
Assay [3] has the same target. As to the kind of experiment: co-immunoprecipitation from THP-1 cells treated with resistin, western blot.
A further assay concerns the target T1, rhCAP1 (human), Q01518.
T1 chain: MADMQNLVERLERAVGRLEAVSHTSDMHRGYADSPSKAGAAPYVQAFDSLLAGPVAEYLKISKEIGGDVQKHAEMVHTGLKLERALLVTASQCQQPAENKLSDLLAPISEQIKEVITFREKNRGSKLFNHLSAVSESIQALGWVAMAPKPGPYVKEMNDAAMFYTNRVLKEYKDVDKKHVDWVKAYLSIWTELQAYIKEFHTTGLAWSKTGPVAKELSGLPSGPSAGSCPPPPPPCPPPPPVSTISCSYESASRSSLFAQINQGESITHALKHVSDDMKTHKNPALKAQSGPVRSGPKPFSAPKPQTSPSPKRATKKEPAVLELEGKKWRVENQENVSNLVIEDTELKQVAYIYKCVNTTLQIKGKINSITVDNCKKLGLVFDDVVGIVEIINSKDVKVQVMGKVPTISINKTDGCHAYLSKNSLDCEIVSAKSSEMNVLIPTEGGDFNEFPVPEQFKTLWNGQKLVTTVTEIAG
As to the kind of experiment: ELISA, plate coated with rhCAP-1 2.5 ug/ml, detection with mFc-HRP Ab [B]. As to conditions: remark: other sources report otherwise.

No constants are given. Whether binding was seen depends on the method and setting. For some of these results: Binding seen in cells or lysates may run through a third protein. Some entries that bind do so weakly or less than the wild type.

As for “mFc-hResistin (from UniProt Q9HD89 19-108) (Fc fusion)”, the binding result in assay [1] and in assay [2] was “binds” throughout.

Take “hResistin (from UniProt Q9HD89 19-108) (ligand)”: in assay [3], the binding entry is given as “binds”.

B1: mFc-hResistin, Q9HD89 19-108 (Fc fusion, human, UniProt Q9HD89 19-108, looked up, not shown: a dimerising Fc or GST)
chain: KTLCSMEEAINERIQEVAGSLIFRAISSIGLECQSVTSRGDLATCPRGFAVTGCTCGSACGSWDVRAETTCHCQCAGMDWTGARCCRVQP
Turning to B1, in the assay with rhCAP1 (human), Q01518, the binding entry was “binds”.
